Experimental data from patent US20170107569, “METHOD FOR ATTACHING ONE OR MORE POLYNUCLEOTIDE BINDING PROTEINS TO A TARGET POLYNUCLEOTIDE” (Oxford Nanopore Technologies Ltd., published 2017).
For at least one entry, the source does not settle the construct or the ends of the probe. Protein sequences can lack the tags named with them.

Molecular target: T1, Phi29 DNA polymerase-A411C/Q560C (Bacillus subtilis phage phi29) (UniProt P03680)
T1 sequence: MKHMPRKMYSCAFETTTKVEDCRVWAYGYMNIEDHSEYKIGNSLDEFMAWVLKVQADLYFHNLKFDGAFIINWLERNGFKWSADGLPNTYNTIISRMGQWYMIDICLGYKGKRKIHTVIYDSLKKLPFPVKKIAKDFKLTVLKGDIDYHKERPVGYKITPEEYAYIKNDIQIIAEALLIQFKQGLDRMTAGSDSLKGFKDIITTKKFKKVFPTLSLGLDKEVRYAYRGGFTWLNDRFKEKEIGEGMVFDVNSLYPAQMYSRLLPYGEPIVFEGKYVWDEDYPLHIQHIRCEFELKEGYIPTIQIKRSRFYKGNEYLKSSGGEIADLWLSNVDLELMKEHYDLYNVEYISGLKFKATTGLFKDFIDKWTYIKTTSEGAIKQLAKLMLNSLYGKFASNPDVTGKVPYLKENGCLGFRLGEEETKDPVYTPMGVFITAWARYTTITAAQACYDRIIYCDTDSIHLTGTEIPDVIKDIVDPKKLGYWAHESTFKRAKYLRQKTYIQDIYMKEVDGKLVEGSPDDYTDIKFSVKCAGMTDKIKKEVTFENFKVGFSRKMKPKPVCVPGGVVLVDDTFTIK
Test: EMSA
Details: 5' phosphate; four iSpC3 spacers between SEQ 44 and SEQ 45; native TBE PAGE, band E; 50 mM Tris pH 8, 20 mM (NH4)2SO4, 10 mM MgCl2, 4% glycerol, 1:1 at 400 nM, room temperature; purified recombinant protein; protein details: closed with TMAD; folded or branched DNA

“GGTTAAACACCCAAGCAGACGCCTTTTTTTTTTCGTCCTGTCGCTGTGTCTCGGCGAGACACAGCGACAGGACG [polymerase DNA hairpin strand (Example 7)]”: binds.
